Source: paper PMC2267177
No constants are given. Whether binding was seen depends on the method and setting. In cells and extracts the contact can be indirect. Some binding calls cover weakened binding; strength is not graded here. Sequences can lack the tags named with a protein.

Target: T1, DET1 (De-ETiolated1), tomato, N-terminally 6xMYC-tagged (tomato) (UniProt Q9ZNU6)
T1 sequence: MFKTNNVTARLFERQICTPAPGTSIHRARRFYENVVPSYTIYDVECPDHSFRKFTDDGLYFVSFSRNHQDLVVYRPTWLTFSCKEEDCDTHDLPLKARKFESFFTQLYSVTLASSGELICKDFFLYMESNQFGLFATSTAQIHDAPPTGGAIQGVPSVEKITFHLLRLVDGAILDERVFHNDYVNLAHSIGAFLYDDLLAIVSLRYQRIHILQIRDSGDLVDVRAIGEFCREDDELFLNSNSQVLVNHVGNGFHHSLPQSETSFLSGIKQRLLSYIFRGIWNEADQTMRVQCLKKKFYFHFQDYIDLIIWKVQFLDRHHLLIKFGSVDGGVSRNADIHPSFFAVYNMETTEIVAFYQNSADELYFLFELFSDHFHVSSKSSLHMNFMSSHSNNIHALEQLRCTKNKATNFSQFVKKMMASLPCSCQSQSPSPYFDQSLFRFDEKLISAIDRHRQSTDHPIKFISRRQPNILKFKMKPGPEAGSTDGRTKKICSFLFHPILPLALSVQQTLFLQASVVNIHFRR
Test: co-IP; total protein extracts of co-infiltrated N. benthamiana leaves; rabbit anti-Myc antibody overnight at 4°C in lysis buffer (50 mM Tris pH 7.8, 10 mM EDTA, 300 mM sucrose, 100 mM NaCl, 1 mM DTT), protein-A Sepharose 2 h at 4°C, three washes with lysis buffer; western blot with anti-HA

binding: binds
B1: DDB1 (UV-Damaged DNA Binding protein 1), tomato, N-terminally 3xHA-tagged (protein, UniProt Q6QNU4 1-1090)
chain: MSVWNYVVTAHKPTNVTHSCVGNFTGPQELNLIIAKCTRIEIHLLTPQGLQPMLDVPIYGRIATLELFRPHGETQDLLFIATERYKFCVLQWDTEASEVITRAMGDVSDRIGRPTDNGQIGIIDPDCRLIGLHLYDGLFKVIPFDNKGQLKEAFNIRLEELQVLDIKFLYGCPKPTIVVLYQDNKDARHVKTYEVSLKDKDFIEGPWAQNNLDNGASLLIPVPPPLCGVLIIGEETIVYCSASAFKAIPIRPSITRAYGRVDADGSRYLLGDHNGLLHLLVITHEKEKVTGLKIELLGETSIASTISYLDNAFVFIGSSYGDSQLVKLNLQPDTKGSYVEVLERYVNLGPIVDFCVVDLERQGQGQVVTCSGAYKDGSLRIVRNGIGINEQASVELQGIKGMWSLRSATDDPYDTFLVVSFISETRVLAMNLEDELEETEIEGFNSQVQTLFCHDAVYNQLVQVTSNSVRLVSSTSRDLKNEWFAPVGYSVNVATANATQVLLATGGGHLVYLEIGDGVLNEVKYAKLDYDISCLDINPIGENPNYSNIAAVGMWTDISVRIYSLPDLNLITKEQLGGEIIPRSVLMCSFEGISYLLCALGDGHLLNFVLSMSTGELTDRKKVSLGTQPITLRTFSSKDTTHVFAASDRPTVIYSSNKKLLYSNVNLKEVSHMCPFNVAAFPDSLAIAKEGELTIGTIDEIQKLHIRSIPLGEHARRISHQEQTRTFALCSVKYTQSNADDPEMHFVRLLDDQTFEFISTYPLDQFEYGCSILSCSFSDDSNVYYCIGTAYVMPEENEPTKGRILVFIVEDGKLQLIAEKETKGAVYSLNAFNGKLLAAINQKIQLYKWASREDGGSRELQTECGHHGHILALYVQTRGDFIVVGDLMKSISLLIFKHEEGAIEERARDYNANWMSAVEILDDDIYLGAENNFNLFTVRKNSEGATDEERSRLEVVGEYHLGEFVNRFRHGSLVMRLPDSDVGQIPTVIFGTVNGVIGVIASLPHDQYLFLEKLQTNLRKVIKGVGGLSHEQWRSFYNEKKTVDAKNFLDGDLIESFLDLSRNRMEEISKAMSVPVEELMKRVEELTRLH
